Reference: article PMC13534531
Results are given in words; binding and its absence hold for the method and conditions named. In cells and extracts the contact can be indirect. These calls come from enrichment with a bait or labelling near it, and not all partners need be listed.

Protein sequences, listed by entry. Tags and fused reporters are not part of them.
UniProt P62814: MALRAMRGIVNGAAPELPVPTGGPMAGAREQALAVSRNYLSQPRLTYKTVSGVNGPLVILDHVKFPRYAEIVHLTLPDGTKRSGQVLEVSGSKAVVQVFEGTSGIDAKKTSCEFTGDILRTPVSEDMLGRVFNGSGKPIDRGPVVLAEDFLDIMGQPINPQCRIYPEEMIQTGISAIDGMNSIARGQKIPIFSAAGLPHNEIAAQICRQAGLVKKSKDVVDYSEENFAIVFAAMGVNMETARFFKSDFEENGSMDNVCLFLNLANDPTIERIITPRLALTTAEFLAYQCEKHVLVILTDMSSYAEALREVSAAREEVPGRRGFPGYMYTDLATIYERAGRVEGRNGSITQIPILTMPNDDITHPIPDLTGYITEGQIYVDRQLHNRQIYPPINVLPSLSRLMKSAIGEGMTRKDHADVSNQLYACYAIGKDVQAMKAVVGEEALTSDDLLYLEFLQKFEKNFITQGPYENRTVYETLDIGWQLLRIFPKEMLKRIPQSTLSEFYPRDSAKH
UniProt Q920I9: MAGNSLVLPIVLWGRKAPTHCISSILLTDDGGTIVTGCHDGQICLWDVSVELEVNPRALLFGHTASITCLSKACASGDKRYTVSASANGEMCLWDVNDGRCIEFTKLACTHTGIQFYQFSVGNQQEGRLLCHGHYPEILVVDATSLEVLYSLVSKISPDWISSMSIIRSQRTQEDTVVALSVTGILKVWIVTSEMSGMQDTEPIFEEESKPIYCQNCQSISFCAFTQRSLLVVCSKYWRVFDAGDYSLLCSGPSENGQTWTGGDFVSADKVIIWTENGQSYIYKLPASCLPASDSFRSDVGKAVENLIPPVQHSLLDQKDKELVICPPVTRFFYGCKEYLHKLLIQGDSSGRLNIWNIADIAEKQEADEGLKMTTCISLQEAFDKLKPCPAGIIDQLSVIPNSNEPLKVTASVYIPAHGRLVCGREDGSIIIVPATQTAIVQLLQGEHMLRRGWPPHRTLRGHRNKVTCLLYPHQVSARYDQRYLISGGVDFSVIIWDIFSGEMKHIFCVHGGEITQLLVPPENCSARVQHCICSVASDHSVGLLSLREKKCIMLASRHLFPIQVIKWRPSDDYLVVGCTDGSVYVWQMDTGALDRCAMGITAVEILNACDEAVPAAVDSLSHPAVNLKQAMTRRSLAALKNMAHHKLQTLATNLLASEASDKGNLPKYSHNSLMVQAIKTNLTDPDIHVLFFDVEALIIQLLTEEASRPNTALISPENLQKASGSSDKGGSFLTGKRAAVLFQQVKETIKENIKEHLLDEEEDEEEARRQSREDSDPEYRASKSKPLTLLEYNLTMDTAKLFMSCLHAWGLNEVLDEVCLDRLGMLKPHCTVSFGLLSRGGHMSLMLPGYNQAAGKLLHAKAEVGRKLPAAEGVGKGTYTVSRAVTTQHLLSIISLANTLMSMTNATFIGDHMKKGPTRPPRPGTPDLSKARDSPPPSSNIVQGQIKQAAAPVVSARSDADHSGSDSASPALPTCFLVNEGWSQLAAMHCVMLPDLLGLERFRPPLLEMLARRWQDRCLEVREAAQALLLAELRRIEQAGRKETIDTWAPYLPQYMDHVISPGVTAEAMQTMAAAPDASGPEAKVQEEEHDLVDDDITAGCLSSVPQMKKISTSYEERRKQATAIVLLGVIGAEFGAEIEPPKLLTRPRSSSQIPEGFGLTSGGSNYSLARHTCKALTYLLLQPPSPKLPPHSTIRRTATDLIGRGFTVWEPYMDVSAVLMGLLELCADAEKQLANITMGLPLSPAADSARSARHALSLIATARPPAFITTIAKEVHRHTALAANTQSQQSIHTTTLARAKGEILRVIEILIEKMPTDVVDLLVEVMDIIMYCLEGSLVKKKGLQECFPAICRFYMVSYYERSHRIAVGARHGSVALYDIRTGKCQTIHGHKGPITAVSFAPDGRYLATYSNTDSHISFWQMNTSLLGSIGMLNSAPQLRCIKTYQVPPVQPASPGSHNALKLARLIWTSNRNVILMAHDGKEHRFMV
UniProt Q6PNC0: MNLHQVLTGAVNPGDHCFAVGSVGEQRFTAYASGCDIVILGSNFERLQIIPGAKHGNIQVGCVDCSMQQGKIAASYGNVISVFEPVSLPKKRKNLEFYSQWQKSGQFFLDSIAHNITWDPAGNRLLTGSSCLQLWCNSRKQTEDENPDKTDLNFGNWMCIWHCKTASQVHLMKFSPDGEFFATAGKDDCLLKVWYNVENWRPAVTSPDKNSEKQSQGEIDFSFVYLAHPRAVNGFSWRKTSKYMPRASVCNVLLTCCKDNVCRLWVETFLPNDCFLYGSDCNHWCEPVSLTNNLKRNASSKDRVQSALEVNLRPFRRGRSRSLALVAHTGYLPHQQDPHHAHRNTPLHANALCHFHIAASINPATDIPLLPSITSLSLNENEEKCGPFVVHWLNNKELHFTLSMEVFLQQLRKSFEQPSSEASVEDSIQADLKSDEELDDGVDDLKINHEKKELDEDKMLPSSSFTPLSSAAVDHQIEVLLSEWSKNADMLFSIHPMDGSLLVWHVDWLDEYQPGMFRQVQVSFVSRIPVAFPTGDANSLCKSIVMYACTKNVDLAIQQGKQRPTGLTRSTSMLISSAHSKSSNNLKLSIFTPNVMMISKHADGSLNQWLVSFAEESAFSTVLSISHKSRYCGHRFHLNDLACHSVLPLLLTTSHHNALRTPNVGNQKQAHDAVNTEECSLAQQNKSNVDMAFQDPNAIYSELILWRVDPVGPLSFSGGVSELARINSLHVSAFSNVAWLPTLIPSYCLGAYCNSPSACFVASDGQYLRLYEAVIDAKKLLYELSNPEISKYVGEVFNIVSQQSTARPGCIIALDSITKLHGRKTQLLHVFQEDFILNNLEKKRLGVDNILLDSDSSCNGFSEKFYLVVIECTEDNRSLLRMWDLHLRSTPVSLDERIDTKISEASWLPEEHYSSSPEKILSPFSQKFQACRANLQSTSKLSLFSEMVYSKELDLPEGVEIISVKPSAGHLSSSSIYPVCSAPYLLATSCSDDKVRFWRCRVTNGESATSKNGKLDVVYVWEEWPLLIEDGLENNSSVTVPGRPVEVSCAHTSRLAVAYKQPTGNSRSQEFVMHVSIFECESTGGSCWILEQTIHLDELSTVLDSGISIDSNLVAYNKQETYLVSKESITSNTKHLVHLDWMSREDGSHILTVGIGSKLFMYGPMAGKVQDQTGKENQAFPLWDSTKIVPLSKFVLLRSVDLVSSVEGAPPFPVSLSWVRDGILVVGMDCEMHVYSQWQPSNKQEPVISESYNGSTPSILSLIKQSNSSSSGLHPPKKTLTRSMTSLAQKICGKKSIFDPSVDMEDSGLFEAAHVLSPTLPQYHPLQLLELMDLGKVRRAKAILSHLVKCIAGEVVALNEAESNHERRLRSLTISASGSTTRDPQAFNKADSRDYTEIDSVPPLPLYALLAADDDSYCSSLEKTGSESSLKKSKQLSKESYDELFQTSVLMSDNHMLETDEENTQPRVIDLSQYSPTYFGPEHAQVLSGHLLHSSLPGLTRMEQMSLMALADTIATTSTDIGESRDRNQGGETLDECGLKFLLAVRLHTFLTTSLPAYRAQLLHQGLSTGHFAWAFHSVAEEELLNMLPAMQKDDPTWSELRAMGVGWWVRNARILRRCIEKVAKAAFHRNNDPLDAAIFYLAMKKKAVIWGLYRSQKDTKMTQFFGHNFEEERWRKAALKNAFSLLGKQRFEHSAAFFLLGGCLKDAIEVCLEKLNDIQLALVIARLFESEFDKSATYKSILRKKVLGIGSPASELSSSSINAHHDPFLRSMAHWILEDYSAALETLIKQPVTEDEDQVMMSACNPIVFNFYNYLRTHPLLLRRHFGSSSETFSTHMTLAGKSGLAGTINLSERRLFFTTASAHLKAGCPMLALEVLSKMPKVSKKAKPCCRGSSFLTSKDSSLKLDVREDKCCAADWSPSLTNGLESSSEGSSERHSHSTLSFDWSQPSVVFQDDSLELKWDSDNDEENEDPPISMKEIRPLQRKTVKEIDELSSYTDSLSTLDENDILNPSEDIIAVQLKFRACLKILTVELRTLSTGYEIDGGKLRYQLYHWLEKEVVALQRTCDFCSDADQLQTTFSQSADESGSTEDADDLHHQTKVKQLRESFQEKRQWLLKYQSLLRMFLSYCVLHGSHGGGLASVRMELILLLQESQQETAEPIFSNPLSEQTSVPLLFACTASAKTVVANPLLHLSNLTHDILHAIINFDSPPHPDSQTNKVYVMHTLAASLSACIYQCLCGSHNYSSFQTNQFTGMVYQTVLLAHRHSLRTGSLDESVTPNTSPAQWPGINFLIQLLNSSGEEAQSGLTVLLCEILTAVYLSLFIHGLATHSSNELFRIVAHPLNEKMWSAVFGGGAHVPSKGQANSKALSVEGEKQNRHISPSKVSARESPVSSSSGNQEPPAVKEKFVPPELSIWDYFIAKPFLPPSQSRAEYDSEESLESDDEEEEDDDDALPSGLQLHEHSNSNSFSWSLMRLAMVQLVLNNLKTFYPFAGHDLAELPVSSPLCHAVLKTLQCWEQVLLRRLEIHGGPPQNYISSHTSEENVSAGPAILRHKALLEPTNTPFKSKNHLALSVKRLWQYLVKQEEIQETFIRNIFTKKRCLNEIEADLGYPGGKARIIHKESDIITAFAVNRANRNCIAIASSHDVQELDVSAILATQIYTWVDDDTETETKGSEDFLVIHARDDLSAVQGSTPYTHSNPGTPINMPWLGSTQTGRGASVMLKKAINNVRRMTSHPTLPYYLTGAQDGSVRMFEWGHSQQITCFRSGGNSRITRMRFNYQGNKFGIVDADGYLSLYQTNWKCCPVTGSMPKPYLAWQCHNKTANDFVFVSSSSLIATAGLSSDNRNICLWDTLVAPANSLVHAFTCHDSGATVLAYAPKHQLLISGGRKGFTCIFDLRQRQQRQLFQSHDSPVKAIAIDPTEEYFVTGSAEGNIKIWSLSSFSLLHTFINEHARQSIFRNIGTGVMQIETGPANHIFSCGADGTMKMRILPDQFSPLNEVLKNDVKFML
UniProt Q3TDK6: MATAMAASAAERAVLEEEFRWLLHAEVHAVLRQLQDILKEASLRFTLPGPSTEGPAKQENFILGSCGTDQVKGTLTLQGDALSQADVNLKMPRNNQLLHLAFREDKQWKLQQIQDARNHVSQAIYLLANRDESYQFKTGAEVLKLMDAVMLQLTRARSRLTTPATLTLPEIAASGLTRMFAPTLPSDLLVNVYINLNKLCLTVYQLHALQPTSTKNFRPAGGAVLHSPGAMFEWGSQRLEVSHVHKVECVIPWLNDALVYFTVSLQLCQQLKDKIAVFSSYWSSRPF

What follows are substances tested against HA-V1B2 (HA-tagged V-ATPase V1 domain subunit B2, Atp6v1b2) (mouse) (UniProt P62814) (assay: affinity purification with mass spectrometry; anti-HA magnetic beads, HA-V1B2 as bait; lysates of MEFs expressing HA-V1B2 against control; label-free LC-MS (DDA, MaxQuant)).
“Wdr7 (mRAVE subunit) (from UniProt Q920I9 1-1489)” was tested, and the binding was “binds”.
“Dmxl1 (mRAVE subunit) (from UniProt Q6PNC0 1-3013)” was tested, and the binding was “binds”.
In the case of “Rogdi (mRAVE subunit) (from UniProt Q3TDK6 1-287)”, the binding is reported as “binds”.
